From PMC6071992 come the findings set out here.

Sequences of proteins named here, by UniProt entry; tags and fusion partners are left off.
UniProt O43812: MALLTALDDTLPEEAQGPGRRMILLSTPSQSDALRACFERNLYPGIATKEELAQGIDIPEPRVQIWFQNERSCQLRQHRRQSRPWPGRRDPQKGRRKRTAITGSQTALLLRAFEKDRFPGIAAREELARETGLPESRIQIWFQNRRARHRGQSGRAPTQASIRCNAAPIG
UniProt P0CJ87: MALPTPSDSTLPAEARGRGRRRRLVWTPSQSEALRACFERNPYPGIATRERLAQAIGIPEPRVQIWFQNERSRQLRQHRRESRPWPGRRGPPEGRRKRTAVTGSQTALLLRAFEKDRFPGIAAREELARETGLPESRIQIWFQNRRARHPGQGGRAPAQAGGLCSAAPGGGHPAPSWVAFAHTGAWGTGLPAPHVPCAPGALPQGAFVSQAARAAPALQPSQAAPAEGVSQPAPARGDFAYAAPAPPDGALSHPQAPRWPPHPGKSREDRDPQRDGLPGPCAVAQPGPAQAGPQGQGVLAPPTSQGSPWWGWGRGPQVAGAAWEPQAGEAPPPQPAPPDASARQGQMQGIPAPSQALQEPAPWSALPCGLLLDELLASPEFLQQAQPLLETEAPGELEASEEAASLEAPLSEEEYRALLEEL
UniProt Q6RFH8: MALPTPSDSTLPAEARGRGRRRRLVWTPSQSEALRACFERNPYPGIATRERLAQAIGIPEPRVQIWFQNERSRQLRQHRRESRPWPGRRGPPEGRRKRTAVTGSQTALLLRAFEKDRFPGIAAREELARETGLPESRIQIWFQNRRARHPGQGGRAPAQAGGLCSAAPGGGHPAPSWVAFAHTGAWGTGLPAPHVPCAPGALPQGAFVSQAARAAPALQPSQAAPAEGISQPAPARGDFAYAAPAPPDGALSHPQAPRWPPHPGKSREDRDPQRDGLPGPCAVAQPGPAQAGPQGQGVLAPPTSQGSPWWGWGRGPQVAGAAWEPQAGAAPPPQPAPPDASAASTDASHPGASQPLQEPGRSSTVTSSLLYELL
UniProt Q96PT3: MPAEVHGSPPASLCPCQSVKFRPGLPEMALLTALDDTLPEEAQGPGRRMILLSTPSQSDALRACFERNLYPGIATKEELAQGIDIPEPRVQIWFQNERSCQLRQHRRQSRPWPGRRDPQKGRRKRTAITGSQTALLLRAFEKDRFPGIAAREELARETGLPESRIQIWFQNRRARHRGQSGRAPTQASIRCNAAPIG
UniProt Q7RTP6: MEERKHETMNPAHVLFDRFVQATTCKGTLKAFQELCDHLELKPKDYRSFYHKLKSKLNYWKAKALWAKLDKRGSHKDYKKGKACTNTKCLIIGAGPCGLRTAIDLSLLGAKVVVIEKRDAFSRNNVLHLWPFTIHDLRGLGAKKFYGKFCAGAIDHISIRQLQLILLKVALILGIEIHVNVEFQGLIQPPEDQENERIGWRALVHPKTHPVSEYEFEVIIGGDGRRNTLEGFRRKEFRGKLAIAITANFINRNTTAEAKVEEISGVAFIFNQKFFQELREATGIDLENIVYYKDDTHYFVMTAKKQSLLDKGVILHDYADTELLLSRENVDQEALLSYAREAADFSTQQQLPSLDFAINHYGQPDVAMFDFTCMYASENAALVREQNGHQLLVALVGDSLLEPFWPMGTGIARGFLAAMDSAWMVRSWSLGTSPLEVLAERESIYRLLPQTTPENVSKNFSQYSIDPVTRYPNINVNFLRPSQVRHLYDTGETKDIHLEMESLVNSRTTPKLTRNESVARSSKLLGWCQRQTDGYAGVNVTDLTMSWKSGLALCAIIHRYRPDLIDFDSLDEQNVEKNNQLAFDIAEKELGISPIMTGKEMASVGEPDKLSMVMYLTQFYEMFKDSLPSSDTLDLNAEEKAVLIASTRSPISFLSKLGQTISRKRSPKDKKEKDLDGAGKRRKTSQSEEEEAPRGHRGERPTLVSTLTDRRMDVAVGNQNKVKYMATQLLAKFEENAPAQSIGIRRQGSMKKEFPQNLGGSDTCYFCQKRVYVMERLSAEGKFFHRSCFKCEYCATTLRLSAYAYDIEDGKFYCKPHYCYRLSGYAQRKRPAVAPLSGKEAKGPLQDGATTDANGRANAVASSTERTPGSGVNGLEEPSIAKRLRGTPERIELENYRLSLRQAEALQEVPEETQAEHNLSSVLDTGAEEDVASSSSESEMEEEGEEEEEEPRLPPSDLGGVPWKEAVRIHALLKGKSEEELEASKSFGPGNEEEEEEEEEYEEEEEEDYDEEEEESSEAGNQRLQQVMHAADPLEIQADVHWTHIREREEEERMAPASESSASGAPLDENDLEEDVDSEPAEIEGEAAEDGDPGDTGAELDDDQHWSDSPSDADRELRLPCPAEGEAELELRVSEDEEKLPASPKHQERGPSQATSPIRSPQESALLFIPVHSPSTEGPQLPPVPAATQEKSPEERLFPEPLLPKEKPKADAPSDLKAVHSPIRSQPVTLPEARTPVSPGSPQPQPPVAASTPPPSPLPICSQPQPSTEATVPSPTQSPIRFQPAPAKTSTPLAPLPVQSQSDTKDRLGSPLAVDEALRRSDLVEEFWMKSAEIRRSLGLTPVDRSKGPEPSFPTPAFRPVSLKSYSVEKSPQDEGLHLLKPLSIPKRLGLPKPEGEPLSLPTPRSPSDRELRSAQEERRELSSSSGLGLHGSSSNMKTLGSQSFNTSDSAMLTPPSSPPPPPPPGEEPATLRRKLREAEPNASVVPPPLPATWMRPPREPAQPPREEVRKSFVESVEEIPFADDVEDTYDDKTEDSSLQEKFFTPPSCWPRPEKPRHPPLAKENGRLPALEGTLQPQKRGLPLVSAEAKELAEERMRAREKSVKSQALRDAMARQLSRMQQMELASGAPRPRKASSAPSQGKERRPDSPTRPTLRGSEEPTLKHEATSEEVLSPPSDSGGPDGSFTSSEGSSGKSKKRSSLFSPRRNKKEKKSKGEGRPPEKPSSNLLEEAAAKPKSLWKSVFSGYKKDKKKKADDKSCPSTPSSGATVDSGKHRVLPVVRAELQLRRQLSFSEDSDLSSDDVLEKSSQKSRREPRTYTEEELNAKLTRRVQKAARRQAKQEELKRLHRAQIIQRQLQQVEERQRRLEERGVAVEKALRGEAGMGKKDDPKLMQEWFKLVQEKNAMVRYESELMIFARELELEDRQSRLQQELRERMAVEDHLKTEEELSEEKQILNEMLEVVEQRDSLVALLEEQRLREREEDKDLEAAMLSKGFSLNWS
UniProt P15863: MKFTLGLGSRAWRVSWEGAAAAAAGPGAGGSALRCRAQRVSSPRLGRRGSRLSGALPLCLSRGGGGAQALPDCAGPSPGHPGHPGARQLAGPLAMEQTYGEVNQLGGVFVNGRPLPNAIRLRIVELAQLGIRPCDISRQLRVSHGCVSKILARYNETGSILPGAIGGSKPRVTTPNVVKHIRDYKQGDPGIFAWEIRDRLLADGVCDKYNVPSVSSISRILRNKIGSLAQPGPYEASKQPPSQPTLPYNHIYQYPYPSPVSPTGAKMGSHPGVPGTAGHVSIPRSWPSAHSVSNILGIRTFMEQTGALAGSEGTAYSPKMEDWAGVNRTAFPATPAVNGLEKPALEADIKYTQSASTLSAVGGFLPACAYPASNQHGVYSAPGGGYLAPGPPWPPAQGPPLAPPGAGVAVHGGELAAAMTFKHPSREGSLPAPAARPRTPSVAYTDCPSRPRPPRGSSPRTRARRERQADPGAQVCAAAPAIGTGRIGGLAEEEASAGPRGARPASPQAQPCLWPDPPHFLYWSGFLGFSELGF
UniProt Q15154: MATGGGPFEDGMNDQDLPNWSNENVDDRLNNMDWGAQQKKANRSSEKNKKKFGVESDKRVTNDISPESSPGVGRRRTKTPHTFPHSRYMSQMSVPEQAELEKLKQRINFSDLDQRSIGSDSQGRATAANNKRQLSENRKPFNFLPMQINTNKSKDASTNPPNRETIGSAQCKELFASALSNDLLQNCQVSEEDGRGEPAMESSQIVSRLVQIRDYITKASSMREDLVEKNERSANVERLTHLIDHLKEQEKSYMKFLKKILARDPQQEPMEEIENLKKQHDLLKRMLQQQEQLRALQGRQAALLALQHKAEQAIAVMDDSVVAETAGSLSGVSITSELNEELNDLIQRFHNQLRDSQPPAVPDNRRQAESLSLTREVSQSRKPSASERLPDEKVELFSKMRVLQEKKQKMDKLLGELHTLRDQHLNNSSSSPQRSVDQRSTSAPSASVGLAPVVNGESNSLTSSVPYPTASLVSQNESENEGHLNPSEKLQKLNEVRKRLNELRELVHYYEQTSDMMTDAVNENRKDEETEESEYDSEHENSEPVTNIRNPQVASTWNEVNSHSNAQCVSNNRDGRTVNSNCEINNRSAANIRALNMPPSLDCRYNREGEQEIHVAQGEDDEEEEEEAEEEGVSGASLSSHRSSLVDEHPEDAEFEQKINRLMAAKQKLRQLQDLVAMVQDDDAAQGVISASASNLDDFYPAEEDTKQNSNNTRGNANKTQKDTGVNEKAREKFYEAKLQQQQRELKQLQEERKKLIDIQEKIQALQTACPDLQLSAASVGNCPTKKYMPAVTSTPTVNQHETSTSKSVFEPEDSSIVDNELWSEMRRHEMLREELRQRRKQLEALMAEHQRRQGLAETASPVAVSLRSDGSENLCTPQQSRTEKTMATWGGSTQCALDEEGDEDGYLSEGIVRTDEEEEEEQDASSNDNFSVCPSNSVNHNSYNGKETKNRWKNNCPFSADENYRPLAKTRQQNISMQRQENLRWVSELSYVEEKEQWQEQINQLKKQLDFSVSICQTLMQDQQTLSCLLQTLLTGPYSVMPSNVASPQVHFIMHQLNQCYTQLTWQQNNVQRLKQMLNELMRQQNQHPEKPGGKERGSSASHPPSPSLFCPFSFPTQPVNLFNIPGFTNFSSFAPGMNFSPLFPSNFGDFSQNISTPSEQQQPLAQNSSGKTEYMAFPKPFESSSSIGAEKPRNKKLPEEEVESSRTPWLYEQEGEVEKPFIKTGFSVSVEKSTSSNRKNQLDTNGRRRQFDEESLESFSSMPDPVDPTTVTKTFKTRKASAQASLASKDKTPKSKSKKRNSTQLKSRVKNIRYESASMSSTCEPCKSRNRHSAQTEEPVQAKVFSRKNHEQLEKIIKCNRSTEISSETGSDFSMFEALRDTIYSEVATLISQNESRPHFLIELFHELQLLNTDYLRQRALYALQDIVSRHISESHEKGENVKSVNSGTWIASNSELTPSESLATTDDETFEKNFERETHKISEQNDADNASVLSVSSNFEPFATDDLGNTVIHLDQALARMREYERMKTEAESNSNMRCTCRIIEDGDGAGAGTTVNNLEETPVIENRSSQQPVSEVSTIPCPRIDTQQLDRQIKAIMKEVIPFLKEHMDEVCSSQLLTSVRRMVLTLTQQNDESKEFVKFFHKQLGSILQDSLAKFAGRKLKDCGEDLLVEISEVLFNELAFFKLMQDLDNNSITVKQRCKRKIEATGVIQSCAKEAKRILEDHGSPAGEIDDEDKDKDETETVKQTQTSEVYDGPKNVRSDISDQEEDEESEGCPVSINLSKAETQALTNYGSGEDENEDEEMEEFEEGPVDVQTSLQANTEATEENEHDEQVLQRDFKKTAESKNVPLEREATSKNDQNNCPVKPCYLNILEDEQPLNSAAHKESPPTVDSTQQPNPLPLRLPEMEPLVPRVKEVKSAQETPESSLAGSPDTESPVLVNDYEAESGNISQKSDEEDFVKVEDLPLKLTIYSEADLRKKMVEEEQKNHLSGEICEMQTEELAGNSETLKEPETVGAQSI
UniProt Q99811: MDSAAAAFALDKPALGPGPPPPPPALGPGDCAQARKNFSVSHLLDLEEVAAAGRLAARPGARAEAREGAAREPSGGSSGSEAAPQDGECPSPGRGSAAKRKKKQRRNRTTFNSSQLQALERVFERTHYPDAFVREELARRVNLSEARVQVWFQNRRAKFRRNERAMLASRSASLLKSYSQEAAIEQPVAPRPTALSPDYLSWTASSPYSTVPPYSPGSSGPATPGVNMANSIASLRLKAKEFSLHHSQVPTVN
UniProt Q16385: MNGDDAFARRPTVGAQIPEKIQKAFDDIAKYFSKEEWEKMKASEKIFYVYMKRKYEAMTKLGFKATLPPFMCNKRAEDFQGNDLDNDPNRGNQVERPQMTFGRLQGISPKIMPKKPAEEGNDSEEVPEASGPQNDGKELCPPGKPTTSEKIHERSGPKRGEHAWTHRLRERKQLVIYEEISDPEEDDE
UniProt Q9H5I1: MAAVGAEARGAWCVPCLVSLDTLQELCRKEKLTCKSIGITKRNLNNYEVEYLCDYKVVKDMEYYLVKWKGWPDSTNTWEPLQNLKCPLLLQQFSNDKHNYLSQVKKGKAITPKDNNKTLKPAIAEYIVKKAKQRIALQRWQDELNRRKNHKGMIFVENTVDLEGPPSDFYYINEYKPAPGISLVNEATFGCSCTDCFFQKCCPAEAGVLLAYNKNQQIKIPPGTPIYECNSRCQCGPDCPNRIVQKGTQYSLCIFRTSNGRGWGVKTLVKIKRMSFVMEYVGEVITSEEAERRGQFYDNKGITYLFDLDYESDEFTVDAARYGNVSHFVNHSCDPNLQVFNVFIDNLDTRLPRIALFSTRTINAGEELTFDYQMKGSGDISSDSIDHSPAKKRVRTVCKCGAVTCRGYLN

No constants are given. Whether binding was seen depends on the method and setting. In cells and extracts the contact can be indirect. Here binding means that the protein was enriched with, or labelled near, the bait; the list need not be complete. Tags and fused reporters may be left off the sequences shown.

This assay deals with T1, mouse TBX18 protein fused to a N-terminal triple FLAG tag followed by a biotinylation signal peptide (mouse) (UniProt Q9EPZ6).
T1 sequence (chain, biotinylated on the biotinylation signal peptide by co-expressed BirA): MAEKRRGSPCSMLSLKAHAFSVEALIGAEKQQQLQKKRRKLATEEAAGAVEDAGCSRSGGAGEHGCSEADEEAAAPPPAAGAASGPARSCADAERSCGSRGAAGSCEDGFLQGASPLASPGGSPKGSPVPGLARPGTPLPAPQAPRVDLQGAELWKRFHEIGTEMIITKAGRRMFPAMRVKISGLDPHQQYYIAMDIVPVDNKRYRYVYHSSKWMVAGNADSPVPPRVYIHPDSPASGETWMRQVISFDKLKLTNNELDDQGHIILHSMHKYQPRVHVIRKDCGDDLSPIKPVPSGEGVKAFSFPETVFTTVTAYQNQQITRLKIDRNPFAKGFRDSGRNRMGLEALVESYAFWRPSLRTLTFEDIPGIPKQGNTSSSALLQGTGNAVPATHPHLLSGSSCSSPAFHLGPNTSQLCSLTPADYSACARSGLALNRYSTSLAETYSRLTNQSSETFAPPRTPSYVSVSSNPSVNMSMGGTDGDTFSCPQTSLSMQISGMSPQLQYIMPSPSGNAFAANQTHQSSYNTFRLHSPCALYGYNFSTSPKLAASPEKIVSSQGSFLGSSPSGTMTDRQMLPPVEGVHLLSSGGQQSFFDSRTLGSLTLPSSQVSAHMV
The assay can be described thus: affinity purification with mass spectrometry; tandem affinity purification of 3xFLAG-BioTag-TBX18 from nuclear extracts of transfected 293 cells (anti-FLAG M2 on Protein A agarose, 3xFLAG peptide elution, then Strep-Tactin Superflow), SDS-PAGE, LC-MS; three independent experiments against a mock control without exogenous TBX18.

As to CBFB (from UniProt Q13951 1-182), the binding result is “binds”. As for CENPE (from UniProt Q02224 1-2701), the entry is “binds”; as for CEP89 (from UniProt Q96ST8 1-783), “binds”; as for CHD7 (from UniProt Q9P2D1 1-2997), “binds”. In the case of DUX1 (from UniProt O43812 1-170), the binding result is on record as “binds”. Then DUX3 (from UniProt Q96PT4 1-197), with “binds”; and DUX4 (from UniProt Q9UBX2 1-424), with “binds”. As for DUX4L2 (from UniProt P0CJ85 1-424), the entry is “binds”; as for DUX4L4 (from UniProt P0CJ87 1-422), “binds”; as for DUX4L9 (from UniProt Q6RFH8 1-374), “binds”.

In the case of DUX5 (from UniProt Q96PT3 1-197), the binding result was “binds”. As for GSC (from UniProt P56915 1-257), the entry is “binds”; as for IKZF2 (from UniProt Q9UKS7 1-526), “binds”; as for MACF1 (from UniProt Q9UPN3 1-7388), “binds”. As for MICAL3 (from UniProt Q7RTP6 1-2002), the entry is “binds”; as for PAX1 (from UniProt P15863 1-534), “binds”; as for PCM1 (from UniProt Q15154 1-2024), “binds”. PRRX2 (from UniProt Q99811 1-253): the binding entry is “binds”.

As for RCOR3 (from UniProt Q9P2K3 1-495), the binding result is given as “binds”. Then SSXB2 (from UniProt Q16385 1-188), with “binds”. As for SUV39H2 (from UniProt Q9H5I1 1-410), the entry is “binds”; as for TPX2 (from UniProt Q9ULW0 1-747), “binds”.

B1: EVX2 (protein, UniProt Q03828 1-476)
chain: MMERIRKEMILMERGLHSPTAGKRFSNLSNSAGNAVLEALENSQHPARLSPRLPSAPLHSALGELPAKGKFEIDTLFNLQHTGSESTVSSEISSAAESRKKPGHYSEAAAEADMSSDVEVGCSALRSPGGLGAAQLKENNGKGYAESGSAAGTTTSASGSGLGSLHGGSGGSGGSAALGGSGSGADQVRRYRTAFTREQIARLEKEFYRENYVSRPRRCELAAALNLPETTIKVWFQNRRMKDKRQRLAMSWPHPADPSFYTYMMTHAAATGSLPYPFHSHVPLHYYPHVGVTAAAAAAAASGAAAAASSPFATSIRPLDTFRALSHPYSRPELLCSFRHPGLYQAPAAAAGLNSAASAAAAAAAAAAAASSAAAAGAPPSGGSAPCSCLSCHSSQSAAAAAAAAAAALGSRGGGGGGGGGGGGGGGGAGAGGGSDFGCSAAAPRSESGFLPYSAAVLSKTAVSPPDQRDEAPLTR
In the case of B1, the binding entry is reported as “binds”.

B2: PBX4 (protein, UniProt Q9BYU1 1-374)
chain: MAAPPRPAPSPPAPRRLDTSDVLQQIMAITDQSLDEAQARKHALNCHRMKPALFSVLCEIKEKTVVSIRGIQDEDPPDAQLLRLDNMLLAEGVCRPEKRGRGGAVARAGTATPGGCPNDNSIEHSDYRAKLSQIRQIYHSELEKYEQACREFTTHVTNLLQEQSRMRPVSPKEIERMVGAIHGKFSAIQMQLKQSTCEAVMTLRSRLLDARRKRRNFSKQATEVLNEYFYSHLNNPYPSEEAKEELARKGGLTISQVSNWFGNKRIRYKKNMGKFQEEATIYTGKTAVDTTEVGVPGNHASCLSTPSSGSSGPFPLPSAGDAFLTLRTLASLQPPPGGGCLQSQAQGSWQGATPQPATASPAGDPGSINSSTSN
Turning to B2, the binding entry was “binds”.

B3: SYBU (protein, UniProt Q9NX95 1-663)
chain: MGPLRESKKEHRVQHHDKEISRSRIPRLILRPHMPQQQHKVSPASESPFSEEESREFNPSSSGRSARTVSSNSFCSDDTGCPSSQSVSPVKTPSDAGNSPIGFCPGSDEGFTRKKCTIGMVGEGSIQSSRYKKESKSGLVKPGSEADFSSSSSTGSISAPEVHMSTAGSKRSSSSRNRGPHGRSNGASSHKPGSSPSSPREKDLLSMLCRNQLSPVNIHPSYAPSSPSSSNSGSYKGSDCSPIMRRSGRYMSCGENHGVRPPNPEQYLTPLQQKEVTVRHLKTKLKESERRLHERESEIVELKSQLARMREDWIEEECHRVEAQLALKEARKEIKQLKQVIETMRSSLADKDKGIQKYFVDINIQNKKLESLLQSMEMAHSGSLRDELCLDFPCDSPEKSLTLNPPLDTMADGLSLEEQVTGEGADRELLVGDSIANSTDLFDEIVTATTTESGDLELVHSTPGANVLELLPIVMGQEEGSVVVERAVQTDVVPYSPAISELIQSVLQKLQDPCPSSLASPDESEPDSMESFPESLSALVVDLTPRNPNSAILLSPVETPYANVDAEVHANRLMRELDFAACVEERLDGVIPLARGGVVRQYWSSSFLVDLLAVAAPVVPTVLWAFSTQRGGTDPVYNIGALLRGCCVVALHSLRRTAFRIKT
As for B3, the binding result was “binds”.

B4: B9D2 (protein, UniProt Q9BPU9 1-175)
chain: MAEVHVIGQIIGASGFSESSLFCKWGIHTGAAWKLLSGVREGQTQVDTPQIGDMAYWSHPIDLHFATKGLQGWPRLHFQVWSQDSFGRCQLAGYGFCHVPSSPGTHQLACPTWRPLGSWREQLARAFVGGGPQLLHGDTIYSGADRYRLHTAAGGTVHLEIGLLLRNFDRYGVEC
Regarding B4, the binding entry is on record as “binds”.

B5: EVX1 (protein, UniProt P49640 1-407)
chain: MESRKDMVVFLDGGQLGTLVGKRVSNLSEAVGSPLPEPPEKMVPRGCLSPRAVPPATRERGGGGPEEEPVDGLAGSAAGPGAEPQVAGAAMLGPGPPAPSVDSLSGQGQPSSSDTESDFYEEIEVSCTPDCATGNAEYQHSKGSGSEALVGSPNGGSETPKSNGGSGGGGSQGTLACSASDQMRRYRTAFTREQIARLEKEFYRENYVSRPRRCELAAALNLPETTIKVWFQNRRMKDKRQRLAMTWPHPADPAFYTYMMSHAAAAGGLPYPFPSHLPLPYYSPVGLGAASAASAAASPFSGSLRPLDTFRVLSQPYPRPELLCAFRHPPLYPGPAHGLGASAGGPCSCLACHSGPANGLAPRAAAASDFTCASTSRSDSFLTFAPSVLSKASSVALDQREEVPLTR
As for B5, the binding result is recorded as “binds”.

B6: CCDC39 (protein, UniProt Q9UFE4 1-941)
chain: MSSEFLAELHWEDGFAIPVANEENKLLEDQLSKLKDERASLQDELREYEERINSMTSHFKNVKQELSITQSLCKARERETESEEHFKAIAQRELGRVKDEIQRLENEMASILEKKSDKENGIFKATQKLDGLKCQMNWDQQALEAWLEESAHKDSDALTLQKYAQQDDNKIRALTLQLERLTLECNQKRKILDNELTETISAQLELDKAAQDFRKIHNERQELIKQWENTIEQMQKRDGDIDNCALELARIKQETREKENLVKEKIKFLESEIGNNTEFEKRISVADRKLLKCRTAYQDHETSRIQLKGELDSLKATVNRTSSDLEALRKNISKIKKDIHEETARLQKTKNHNEIIQTKLKEITEKTMSVEEKATNLEDMLKEEEKDVKEVDVQLNLIKGVLFKKAQELQTETMKEKAVLSEIEGTRSSLKHLNHQLQKLDFETLKQQEIMYSQDFHIQQVERRMSRLKGEINSEEKQALEAKIVELRKSLEEKKSTCGLLETQIKKLHNDLYFIKKAHSKNSDEKQSLMTKINELNLFIDRSEKELDKAKGFKQDLMIEDNLLKLEVKRTREMLHSKAEEVLSLEKRKQQLYTAMEERTEEIKVHKTMLASQIRYVDQERENISTEFRERLSKIEKLKNRYEILTVVMLPPEGEEEKTQAYYVIKAAQEKEELQREGDCLDAKINKAEKEIYALENTLQVLNSCNNNYKQSFKKVTPSSDEYELKIQLEEQKRAVDEKYRYKQRQIRELQEDIQSMENTLDVIEHLANNVKEKLSEKQAYSFQLSKETEEQKPKLERVTKQCAKLTKEIRLLKDTKDETMEEQDIKLREMKQFHKVIDEMLVDIIEENTEIRIILQTYFQQSGLELPTASTKGSRQSSRSPSHTSLSARSSRSTSTSTSQSSIKVLELKFPASSSLVGSPSRPSSASSSSSNVKSKKSSK
Consider B6, for which the binding result is listed as “binds”.
